Reference: patent US20240309110A1
These are yes or no findings as the source states them, for the method shown. Some results given as binding are weak or reduced against the parent protein; the word gives no strength.

How the values were obtained:
Test in all cases: glycopeptide microarray (20-mer MUC1 Tn-glycopeptides printed on a chip), RFU as heat map
[1] = target: T1, …
T1 sequence (peptide, S13 and T14 carry GalNAc (Tn), bold and underlined on the sheet): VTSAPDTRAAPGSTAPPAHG

[2] = target: T2, …; remark: listed apart in the source
T2 sequence (peptide, S13 and T14 carry GalNAc (Tn), bold and underlined on the sheet): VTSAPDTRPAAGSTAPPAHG

[3] = target: T3, …; remark: listed apart in the source
T3 sequence (peptide, S13 and T14 carry GalNAc (Tn), bold and underlined on the sheet): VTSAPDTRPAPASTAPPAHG

[4] = target: T4, …; remark: listed apart in the source
T4 sequence (peptide, T14 carries GalNAc (Tn), bold and underlined on the sheet): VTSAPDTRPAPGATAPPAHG

[5] = target: T5, …; remark: listed apart in the source
T5 sequence (peptide, S13 and T14 carry GalNAc (Tn), bold and underlined on the sheet): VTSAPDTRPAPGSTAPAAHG

[6] = target: T6, …; remark: listed apart in the source
T6 sequence (peptide, S13 and T14 carry GalNAc (Tn), bold and underlined on the sheet): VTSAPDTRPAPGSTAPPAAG

Measured: binding

B1: scFv 5E5 (scFv, V domains shown)
VH: QSDAELVKPGSSVKISCKASGYTFTDHAIHWVKQKPEQGLEWIGHFSPGNTDIKYNDKFKGKATLTVDRSSSTAYMQLNSLTSEDSAVYFCKTSTFFFDYWGQGTTLTVSS
VL: ELVMTQSPSSLTVTAGEKVTMICKSSQSLLNSGDQKNYLTWYQQKPGQPPKLLIFWASTRESGVPDRFTGSGSGDFTLTISSVQAEDLAVYYCQNDYSYPLTFGAGTKLELK
binds: all assays above
